Measured values: patent US20230303577A1, “TEMOZOLOMIDE ANALOGS AND METHODS OF USE” (St. John's Cancer Institute, priority 2020, published 2023)
At least one structure is not confirmed: it was looked up by name or label, or the drawing left a doubt.

What was measured:
[1] = Pre-formulation testing: solubility, pH and stability in vehicles; assay type: physicochemical
Method: Two formulations for TP3 and TMZ were prepared (Tables 10 and 11). Pre-formulation testing was in volumes of 100 μl-250 μl, and should be confirmed with larger volumes. Mice were dosed at 20 mg/kg of TMZ and TP3 using formulation 2 orally and brain and plasma samples were collected at 0, 0.5, 1, 3, 6 and 12 h timepoints and the concentration was measured using LC-MS and calculate PK parameters using standard equation. The stability profile (FIGS. 9A and 9B) and release kinetics profiles (FIGS. 10A and 10B) were compared. Single dose oral brain to plasma pharmacokinetic parameters were determined with Formulation 2 (Table 12).

[2] = tested on: U87 cells; assay: U87 subcutaneous flank xenograft GBM model; assay type: in vivo, SCID mice; settings: 20 mg/kg orally, once daily then every other day, 14 days
Method: A suspension of U87 cells was prepared in 1×HBSS, pH 7.4 and mixed with an equal volume (1:1) of ice cold Matrigel®. Then, 0.1 mL of the cell suspension containing 5×10^6 cells was injected subcutaneously using a 22-gauge needle into the flank region of SCID mice. Animals were monitored daily during the period between inoculation and study initiation. Treatment was started when the average tumor size reached approximately ˜100 mm^3. The test (TP3) and Reference compound (TMZ) were administered orally at 20 mg/kg at a dose volume of 10 mL/Kg. The exact dose was administered based on individual animal body weight recorded during the study period. The TP3 and TMZ treatments were scheduled for once daily dosing for 14 days. However, the dose frequency had to be reduced from once daily to every other day, due to a 10-14% loss of body weight seen in the treated mice from Day 9 until study completion (FIG. 11D). The control group was administered vehicle alone. The test and reference compounds were formulated in 0.4% (v/v) Tween 80, 2% (v/v) Glycerol and 97.6% (v/v) of 30% (w/v) Captisol (SPECD). Number of mice per treatment cohort=8. Tumor growth was measured twice weekly using a digital Vernier caliper.

[3] = tested on: U87-Luc; assay: Orthotopic U87-Luc human glioblastoma tumor xenograft model; assay type: in vivo, Athymic Nude mice; settings: 10 mg/kg oral gavage, QD×5×4
Method: Animal studies were performed in accordance with Translational Drug Development, LLC IACUC-approved protocols. Intracranial tumors were generated by injecting 3×10^5 U87-Luc cells in […] of growth media into the right corpus striatum (1 mm anterior and 2 mm lateral to the bregma, depth of 3 mm) of Athymic Nude (Crl:NU(NCr)-Foxn1nu) mice (Charles River, Hollister, CA). Treatment was initiated 7 days after injection. […] Oral gavage treatments were formulated in 10% PEG300 in PBS. Bioluminescence (Total ROI, photons/s) images were performed under anesthesia once weekly starting on Day 1 (7 days post inoculation of U87-Luc cells) and body weights were recorded twice weekly. […] Upon peri-morbidity or at study end, mice were euthanized, brain tumor was excised from right side of brain, and a wet weight was recorded. If tumor was not grossly identifiable, expected tumor-region of the brain was collected. Tissue was fixed in formalin for 48-72 hours and then stored in 70% Ethanol.
A minimum of 100 μL/mouse of whole blood was collected via submandibular survival bleed on Day 10 and Day 27 from 3 mice per group (selected by TD2) from Groups 1, 2 and 4 for assessment of hematological toxicity. Blood was placed in K2-EDTA microtainer tubes (Becton, Dickinson & Co.; Franklin Lakes, NJ) and mixed thoroughly before CBC analysis at TD2.

Q: For Cn1nnc2c(C(N)=O)ncn2c1=O [TMZ, temozolomide], which pH ([1]; Formulation 2, 2 mg/ml) is on record?
A: 4.77

Q: And the pH ([1]; Formulation 3, 2 mg/ml)?
A: 6.01

Q: And the tumor volume [2]?
A: significantly reduced

Q: And the tumor weight [2]?
A: significantly reduced

Q: What about the tumor burden [3] of the same compound?
A: reduced tumor burden
